Assay results from paper PMC7916142.
No constants are given. Whether binding was seen depends on the method and setting. In cells and extracts the contact can be indirect. A result given as binding can be weak or reduced; the word gives no strength.

By UniProt entry, the sequences of proteins in these tests, tags left out. Residues count along the entry.
UniProt Q924X6, residues 29-996: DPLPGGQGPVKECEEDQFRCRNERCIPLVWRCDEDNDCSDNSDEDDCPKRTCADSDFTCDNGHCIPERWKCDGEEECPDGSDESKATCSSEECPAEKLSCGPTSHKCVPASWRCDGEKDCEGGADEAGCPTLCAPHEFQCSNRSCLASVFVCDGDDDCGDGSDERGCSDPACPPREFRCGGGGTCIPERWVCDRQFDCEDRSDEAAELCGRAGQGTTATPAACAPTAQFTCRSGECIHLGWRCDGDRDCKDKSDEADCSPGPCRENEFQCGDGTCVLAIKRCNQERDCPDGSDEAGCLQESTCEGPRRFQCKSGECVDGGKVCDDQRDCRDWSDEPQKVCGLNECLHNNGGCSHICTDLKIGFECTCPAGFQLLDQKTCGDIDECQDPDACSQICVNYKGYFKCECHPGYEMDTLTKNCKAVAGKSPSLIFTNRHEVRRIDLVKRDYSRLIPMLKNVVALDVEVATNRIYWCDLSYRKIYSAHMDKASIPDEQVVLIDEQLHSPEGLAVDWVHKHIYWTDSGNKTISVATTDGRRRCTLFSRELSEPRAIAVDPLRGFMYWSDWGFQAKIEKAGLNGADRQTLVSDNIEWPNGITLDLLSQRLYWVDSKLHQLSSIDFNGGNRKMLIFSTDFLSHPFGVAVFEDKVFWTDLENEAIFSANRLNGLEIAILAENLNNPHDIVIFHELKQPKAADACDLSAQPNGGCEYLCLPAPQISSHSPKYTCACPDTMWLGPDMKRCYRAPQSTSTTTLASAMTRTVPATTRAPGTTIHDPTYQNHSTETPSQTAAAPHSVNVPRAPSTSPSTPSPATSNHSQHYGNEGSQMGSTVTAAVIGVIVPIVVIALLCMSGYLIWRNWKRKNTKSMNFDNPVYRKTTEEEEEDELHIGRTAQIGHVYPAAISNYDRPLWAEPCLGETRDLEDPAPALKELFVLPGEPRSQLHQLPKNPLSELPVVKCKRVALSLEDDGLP

Experiments:
[1] = target: apolipoprotein E receptor 2 (ApoER2), endogenous in murine embryonic neurons (mouse (endogenous in embryonic neurons)) (UniProt Q924X6); test: co-IP; lysates of murine embryonic neurons (E15.5), endogenous proteins; immunoprecipitation with anti-EGFR or anti-ApoER2, Protein A Sepharose; Dab1 detected by blot; unrelated IgG as control
[2] = target: epidermal growth factor receptor (EGFR), endogenous in murine embryonic neurons (mouse (endogenous in embryonic neurons)) (UniProt Q01279); test: as above

## Disabled 1 (Dab1), endogenous in murine embryonic neurons (from UniProt P97318-2)
[1]
  binding: binds
[2]
  binding: binds weakly
